From US20130245110A1, “USE FOR CANNABINOIDS” (priority 2008, published 2013) come the findings set out here.

Where “and” joins values, the source holds several entries; their conditions need not be identical. Equal values may be shown once.

For experiment [1], the system named is dietary induced obese (DIO) mouse model. The experiment in a line: Thermic response to food (energy expenditure after Complan meal), chronic dosing study. The class given is in vivo. Set-up: unit not given here. The source says:
Once the acute studies were complete the mice were grouped in two groups of five mice for the chronic dosing study. Dosing was daily by oral gavage at 09:00-10:00.
Energy expenditure consists of basal metabolic rate, exercise-induced energy expenditure, and non-exercise thermogenesis. The latter is the most likely area to be affected by anti-obesity agents. Non-exercise thermogenesis includes the thermic response to food, which in rodents can be measured by examining energy expenditure in response to a meal. This was measured after an oral dose of complan (see methods).

The test system is the same in experiment [2]. The settings on record: DIO mice; analysis of variance. On the procedure: (§1) The following are a battery of tests used to elicit the effects of drugs on diseases including type I or II diabetes, obesity, dyslipidaemia, related metabolic disorders and cardiovascular disease. • a) Body weight: Bodyweights of all mice were measured twice weekly during the study. • b) Food intake: Food intake was measured by weight difference taking account of food wastage in the bottom of the cage. • c) Measurement of water consumption: Water intake was calculated daily for each animal, during the treatment period, by weight difference of the water bottle. • d) Oral Glucose Tolerance Test (OGTT): Glucose was dissolved in water (3 g/10 ml) and given to the mice orally at a rate of 3 g/kg. […] Samples were then analysed automatically using a SpectraMax-250 and SoftMax Pro software. • f) Plasma preparation: Blood was collected for the measurement of i) plasma insulin, ii) cholesterol, iii) free fatty acids or iv) triglyceride concentration. • i. Plasma insulin analysis: Plasma insulin was measured using 5 μl of plasma, compared with a mouse insulin standard using a 96-well micro-assay plate • ii. […] The samples were mixed and incubated for 5 minutes before reading at dual wavelengths of 500 and 660 nm. • iii. Plasma free fatty acids: 5 μl samples of plasma were measured into a 96-well assay plate, to which was added 0.2 ml of reagents NEFA C • iv. […]

Experiment [3] has as its system C57B1/6 ob/ob mouse. The experiment in a line: Thermic effect of a Complan meal: 3-hour energy expenditure. The experiment is classed as in vivo. The following applies: ob/ob mice, day 17, 10 mg/kg daily oral gavage.
Experiment [4] has as its system C57B1/6 ob/ob mouse. The experiment in a line: Fed plasma HDL-cholesterol. The following applies: ob/ob mice, 10 mg·kg−1 daily oral gavage. The class given is in vivo. The procedure:
as §1

With `Cc1c(C(=O)NN2CCCCC2)nn(-c2ccc(Cl)cc2Cl)c1-c1ccc(I)cc1` [AM 251], the “Thermic response to food” value in experiment [1] (DIO mice, days 15-17, 10 mg·kg−1 p.o., Hour 0.44) was 1.11 and 1.31 and 1.97; in experiment [1] (DIO mice, days 15-17, 10 mg·kg−1 p.o., Hour 0.67), 1.81 and 1.97 and 2.49; in experiment [1] (DIO mice, days 15-17, 10 mg·kg−1 p.o., Hour 0.89) it was 2.19 and 2.38 and 2.78; in experiment [1] (DIO mice, days 15-17, 10 mg·kg−1 p.o., Hour 1.11) it was 2.52 and 2.78 and 3.40; in experiment [1] (DIO mice, days 15-17, 10 mg·kg−1 p.o., Hour 1.33), 2.86 and 2.85 and 3.64; in experiment [1] (DIO mice, days 15-17, 10 mg·kg−1 p.o., Hour 1.56), 3.05 and 3.14 and 3.53. The “Thermic response to food” value in experiment [1] (DIO mice, days 15-17, 10 mg·kg−1 p.o., Hour 2.22) is 3.30 and 4.10 and 3.46; in experiment [1] (DIO mice, days 15-17, 10 mg·kg−1 p.o., Hour 2.44) it was 3.38 and 4.00 and 3.68; in experiment [1] (DIO mice, days 15-17, 10 mg·kg−1 p.o., Hour 2.67) it was 3.42 and 4.24 and 3.78; in experiment [1] (DIO mice, days 15-17, 10 mg·kg−1 p.o., Hour 2.89), 3.56 and 4.26 and 3.99; in experiment [1] (DIO mice, days 15-17, 10 mg·kg−1 p.o., Hour 3.11), 3.69 and 4.26 and 3.78; in experiment [1] (DIO mice, days 15-17, 10 mg·kg−1 p.o., Hour 3.33) it was 3.63 and 4.23 and 3.80. Moreover, the “Thermic response to food” value in experiment [1] (DIO mice, days 15-17, 10 mg·kg−1 p.o., Hour 3.56) is 3.79 and 4.24 and 3.62; in experiment [1] (DIO mice, days 15-17, 10 mg·kg−1 p.o., Hour 3.78) it was 3.79 and 4.21 and 3.54; in experiment [1] (DIO mice, days 15-17, 10 mg·kg−1 p.o., Hour 4.00), 4.05 and 4.24 and 3.79; in experiment [1] (mouse, in vivo, po), 3.30 and 3.25 and 3.50 and 3.44. In experiment [2], the “Fall in leptin levels” value was “significant effect”. Further, in the experiment on C57B1/6 ob/ob mouse [3], the “Thermic effect of a meal: 3-hour energy expenditure per animal” value is “significant effect and 9.00 and 9.38”. The “Fed HDL cholesterol day 28” value in the experiment with C57B1/6 ob/ob mouse [4] (individual values) was 2.03 and 2.26 and 2.04 and 2.19 and 1.97 and 2.24 and 2.00. Moreover, in the experiment on C57B1/6 ob/ob mouse [4] (HDL as percentage of total cholesterol), the “percentage HDL cholesterol day 28” value is 34.8% and 28.8% and 30.6% and 35.6% and 32.8% and 34.9%.
